In this experiment the test system is ACHN cell line. As to the kind of experiment: drug screen of the SelleckChem kinase inhibitor library with and without 5 uM SU-329, Cell-Titer Glo after 5 days. It counts as cell-based. The settings on record: kinase inhibitor at 200 nM with and without 5 uM SU329.

SMILES strings stand for the structures.

For the molecule `Cc1ccccc1-n1c(Cn2nc(-c3cccc(O)c3)c3c(N)ncnc32)nc2cccc(C)c2c1=O` [PIK-294], the log2fc turned out to be 0.04742. Consider `Cc1nc2c(-c3cnc(N)nc3)nc(N3CCOCC3)nc2n1C(C)C` [VS-5584 (SB2343)], for which the log2fc is on record as −0.3679.
